Laboratory results published in paper PMC3404119.
Results are given in words; binding and its absence hold for the method and conditions named. A result given as binding can be weak or reduced; the word gives no strength. For some assays here: Binding seen in cells or lysates may run through a third protein.

B1: Hes6 (protein, UniProt Q6P0J1 1-226)
chain: MAPASRSNTHDEDNYGIKDRKTRKPLVEKKRRARINESLQELRLLLADPDAQVKMENAEVLEMTVKRVESILQNKAKEADSVNREANERFAAGYIQCMHEVHTFVSSCPGIDATIAADLLNHLLECMPLNDEERFQDILSDLISDSNNSGTWPGEAAYATLSPGGTSVANGGSSALSPAPSTTSSDDICSDLDDTDTEHSRISVDAGDQAPVVPTLYTNKSIWRPW

Tests used:
[1] = target: T1, Hes6 (zebrafish) (UniProt Q6P0J1); test: MITOMI (mechanically induced trapping of molecular interactions); GFP-tagged Her protein from wheat germ extract immobilised on the microfluidic chip surface with anti-GFP antibody and washed with PBS; mCherry-tagged protein expressed on chip in wheat germ extract with 250 nM Cy5-labelled DNA oligomer; 3 h at room temperature; slope of free against bound mCherry signal as relative affinity
T1 sequence: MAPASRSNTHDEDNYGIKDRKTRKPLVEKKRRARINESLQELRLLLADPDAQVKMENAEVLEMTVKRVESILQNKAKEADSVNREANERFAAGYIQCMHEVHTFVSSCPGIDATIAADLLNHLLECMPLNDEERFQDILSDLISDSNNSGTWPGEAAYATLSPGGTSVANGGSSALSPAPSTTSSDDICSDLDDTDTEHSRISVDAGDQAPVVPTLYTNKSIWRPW

[2] = target: T1, Hes6 (zebrafish); test: co-IP; GFP-tagged Her1, Her7 or Hes6 co-expressed with mCherry-tagged proteins in an in vitro transcription-translation system; immunoprecipitation with a GFP antibody, immunoblot for mCherry
[3] = target: Her7 (zebrafish); test: as above
[4] = target: Her1 (zebrafish); test: as above
[5] = target: Her7 (zebrafish); test: MITOMI (mechanically induced trapping of molecular interactions); GFP-tagged Her protein from wheat germ extract immobilised on the microfluidic chip surface with anti-GFP antibody and washed with PBS; mCherry-tagged protein expressed on chip in wheat germ extract with 250 nM Cy5-labelled DNA oligomer; 3 h at room temperature; slope of free against bound mCherry signal as relative affinity

| Molecule | binding [1] | binding [2] | binding [3] | binding [4] | binding [5] |
| --- | --- | --- | --- | --- | --- |
| Her1 (zebrafish) | binds | binds | – | – | – |
| Her7 (zebrafish) | binds | binds | – | – | – |
| PPARγ (peroxisome proliferator-activated receptor gamma) | – | no binding | – | – | – |
| B1 | – | – | binds | binds | binds |
